# Laboratory results as given in the supplement of paper PMC8728848.
# The other results are listed elsewhere or left out.
# B1: AFL6 (Aspergillus fumigatus), Q4WKJ1 (protein)
# chain: MSFHLTAEDIRIEDGHRLVARLRNADGDLQDASIDLNTCLGNDNGHFQWDGVDFSHSAQDVHFAIEGGGQVPVLRAQLANQDGEFQDADVNLSERIENINGEFVFH
# Assays:
# Assay in all cases: glycan array binding signal (z-score within array); higher = stronger binding
# Conditions in all cases: glycan notation: IUPAC condensed, linker removed
# [1] = target: Fuc(a1-2)Gal(b1-4)GlcNAc(b1-3)Gal(b1-4)GlcNAc(b1-2)Man(a1-3)[Fuc(a1-2)Gal(b1-4)GlcNAc(b1-3)Gal(b1-4)GlcNAc(b1-2)Man(a1-6)]Man(b1-4)GlcNAc(b1-4)GlcNAc
# Outline: (§1)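 Glycan array data came from 3228 arrays in the Consortium for Functional Glycomics database, and only arrays with an available protein sequence were kept. Glycan names were put into IUPAC-condensed notation, and columns mapping to the same glycan were averaged. The binding signal is a within-array Z-score, averaged across arrays of one protein sequence run at different concentrations or buffers and across linkers. A negative Z-score can be read as non-binding.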
# [2] = target: Fuc(a1-2)Gal(b1-4)GlcNAc(b1-3)Gal(b1-4)GlcNAc(b1-3)Gal(b1-4)GlcNAc
# Outline: as §1
# [3] = target: Fuc(a1-2)Gal(b1-4)GlcNAc(b1-3)GalNAc
# Outline: as §1
# [4] = target: Fuc(a1-2)Gal(b1-4)GlcNAc(b1-3)[Fuc(a1-2)Gal(b1-4)GlcNAc(b1-6)]GalNAc
# Outline: as §1
# [5] = target: Fuc(a1-2)Gal(b1-4)GlcNAc(b1-3)[Fuc(a1-3)[Gal(b1-4)]GlcNAc(b1-6)]Gal(b1-4)Glc
# Outline: as §1
# [6] = target: Fuc(a1-2)Gal(b1-4)GlcNAc(b1-6)GalNAc
# Outline: as §1
# [7] = target: Fuc(a1-2)Gal(b1-4)GlcNAc6S
# Outline: as §1
# [8] = target: Fuc(a1-2)Gal(b1-4)[Fuc(a1-3)]GlcNAc
# Outline: as §1
# [9] = target: Fuc(a1-2)Gal(b1-4)[Fuc(a1-3)]GlcNAc(b1-2)Man(a1-3)[Fuc(a1-2)Gal(b1-4)[Fuc(a1-3)]GlcNAc(b1-2)Man(a1-6)]Man(b1-4)GlcNAc(b1-4)[Fuc(a1-6)]GlcNAc
# Outline: as §1
# [10] = target: Fuc(a1-2)Gal(b1-4)[Fuc(a1-3)]GlcNAc(b1-2)[Fuc(a1-2)Gal(b1-4)[Fuc(a1-3)]GlcNAc(b1-4)]Man(a1-3)[Fuc(a1-2)Gal(b1-4)[Fuc(a1-3)]GlcNAc(b1-2)Man(a1-6)]Man(b1-4)GlcNAc(b1-4)GlcNAc
# Outline: as §1
# [11] = target: Fuc(a1-2)Gal(b1-4)[Fuc(a1-3)]GlcNAc(b1-3)Gal(b1-4)[Fuc(a1-3)]GlcNAc
# Outline: as §1
# [12] = target: Fuc(a1-2)Gal(b1-4)[Fuc(a1-3)]GlcNAc(b1-3)Gal(b1-4)[Fuc(a1-3)]GlcNAc(b1-3)Gal(b1-4)[Fuc(a1-3)]GlcNAc
# Outline: as §1
# [13] = target: Fuc(a1-2)Gal(b1-4)[Fuc(a1-3)]GlcNAc(b1-3)GalNAc
# Outline: as §1
# [14] = target: Fuc(a1-2)Gal(b1-4)[Fuc(a1-3)]GlcNAc(b1-3)[Neu5Ac(a2-6)Gal(b1-4)GlcNAc(b1-6)]Gal(b1-4)Glc
# Outline: as §1
# [15] = target: Fuc(a1-2)Gal3S(b1-4)GlcNAc
# Outline: as §1
# [16] = target: Fuc(a1-2)Gal6S(b1-3)GlcNAc
# Outline: as §1
# [17] = target: Fuc(a1-2)Gal6S(b1-3)GlcNAc6S
# Outline: as §1
# Fuc(a1-2)Gal6S(b1-4)Glc = target: Fuc(a1-2)Gal6S(b1-4)Glc
# Outline: as §1
# [18] = target: Fuc(a1-2)Gal6S(b1-4)Glc6S
# Outline: as §1
# Fuc(a1-2)[Gal(a1-3)]Gal = target: Fuc(a1-2)[Gal(a1-3)]Gal
# Outline: as §1
# [19] = target: Fuc(a1-2)[Gal(a1-3)]Gal(b1-3)GalNAc
# Outline: as §1
# [20] = target: Fuc(a1-2)[Gal(a1-3)]Gal(b1-3)GalNAc(b1-3)Gal(a1-4)Gal(b1-4)Glc
# Outline: as §1
# [21] = target: Fuc(a1-2)[Gal(a1-3)]Gal(b1-3)GlcNAc
# Outline: as §1
# [22] = target: Fuc(a1-2)[Gal(a1-3)]Gal(b1-3)GlcNAc(b1-2)Man(a1-3)[Fuc(a1-2)[Gal(a1-3)]Gal(b1-3)GlcNAc(b1-2)Man(a1-6)]Man(b1-4)GlcNAc(b1-4)GlcNAc
# Outline: as §1
# [23] = target: Fuc(a1-2)[Gal(a1-3)]Gal(b1-3)GlcNAc(b1-2)Man(a1-3)[Fuc(a1-2)[Gal(a1-3)]Gal(b1-3)GlcNAc(b1-2)Man(a1-6)]Man(b1-4)GlcNAc(b1-4)[Fuc(a1-6)]GlcNAc
# Outline: as §1
# [24] = target: Fuc(a1-2)[Gal(a1-3)]Gal(b1-3)GlcNAc(b1-3)GalNAc
# Outline: as §1
# [25] = target: Fuc(a1-2)[Gal(a1-3)]Gal(b1-3)GlcNAc(b1-6)GalNAc
# Outline: as §1
# [26] = target: Fuc(a1-2)[Gal(a1-3)]Gal(b1-4)Glc
# Outline: as §1
# [27] = target: Fuc(a1-2)[Gal(a1-3)]Gal(b1-4)GlcNAc
# Outline: as §1
# [28] = target: Fuc(a1-2)[Gal(a1-3)]Gal(b1-4)GlcNAc(b1-2)Man
# Outline: as §1
binder,measurement,setting,value
B1,glycan array binding signal (z-score),[1],1.21
same,glycan array binding signal (z-score),[2],-0.172
same,glycan array binding signal (z-score),[3],-0.685
same,glycan array binding signal (z-score),[4],-0.416
same,glycan array binding signal (z-score),[5],-0.559
same,glycan array binding signal (z-score),[6],-0.193
same,glycan array binding signal (z-score),[7],-0.334
same,glycan array binding signal (z-score),[8],-0.131
same,glycan array binding signal (z-score),[9],1.95
same,glycan array binding signal (z-score),[10],0.702
same,glycan array binding signal (z-score),[11],-0.293
same,glycan array binding signal (z-score),[12],0.433
same,glycan array binding signal (z-score),[13],0.408
same,glycan array binding signal (z-score),[14],-0.528
same,glycan array binding signal (z-score),[15],-0.365
same,glycan array binding signal (z-score),[16],-0.707
same,glycan array binding signal (z-score),[17],0.818
same,glycan array binding signal (z-score),Fuc(a1-2)Gal6S(b1-4)Glc,-0.289
same,glycan array binding signal (z-score),[18],-0.191
same,glycan array binding signal (z-score),Fuc(a1-2)[Gal(a1-3)]Gal,-0.21
same,glycan array binding signal (z-score),[19],0.048
same,glycan array binding signal (z-score),[20],0.165
same,glycan array binding signal (z-score),[21],-0.417
same,glycan array binding signal (z-score),[22],-0.165
same,glycan array binding signal (z-score),[23],-0.086
same,glycan array binding signal (z-score),[24],0.593
same,glycan array binding signal (z-score),[25],-0.178
same,glycan array binding signal (z-score),[26],0.567
same,glycan array binding signal (z-score),[27],-0.373
same,glycan array binding signal (z-score),[28],-0.544

# 2 consecutive entries already listed, quoted:
binder,measurement,setting,value
B1,glycan array binding signal (z-score),[13],0.408
same,glycan array binding signal (z-score),[14],-0.528
